No constants are given. Whether binding was seen depends on the method and setting. Binding seen in cells or lysates may run through a third protein. Here binding means that the protein was enriched with, or labelled near, the bait; the list need not be complete. Tags and fused reporters may be left off the sequences shown.
T1: SFB-tagged WWOX (WW domain-containing oxidoreductase) (human) (UniProt Q9NZC7)
T1 sequence: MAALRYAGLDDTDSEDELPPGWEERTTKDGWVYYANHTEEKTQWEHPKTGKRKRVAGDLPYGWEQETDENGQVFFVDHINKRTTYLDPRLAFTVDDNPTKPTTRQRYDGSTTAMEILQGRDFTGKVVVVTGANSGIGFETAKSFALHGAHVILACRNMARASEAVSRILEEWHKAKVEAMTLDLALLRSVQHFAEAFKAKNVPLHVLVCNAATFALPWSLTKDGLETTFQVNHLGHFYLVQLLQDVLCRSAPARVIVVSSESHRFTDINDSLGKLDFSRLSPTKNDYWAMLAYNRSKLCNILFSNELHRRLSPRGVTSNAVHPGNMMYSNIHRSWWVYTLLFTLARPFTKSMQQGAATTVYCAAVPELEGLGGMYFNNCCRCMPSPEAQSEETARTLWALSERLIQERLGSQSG

B1: dihydrolipoamide dehydrogenase (PDC component E3) (protein, UniProt P09622 36-509)
chain: ADQPIDADVTVIGSGPGGYVAAIKAAQLGFKTVCIEKNETLGGTCLNVGCIPSKALLNNSHYYHMAHGKDFASRGIEMSEVRLNLDKMMEQKSTAVKALTGGIAHLFKQNKVVHVNGYGKITGKNQVTATKADGGTQVIDTKNILIATGSEVTPFPGITIDEDTIVSSTGALSLKKVPEKMVVIGAGVIGVELGSVWQRLGADVTAVEFLGHVGGVGIDMEISKNFQRILQKQGFKFKLNTKVTGATKKSDGKIDVSIEAASGGKAEVITCDVLLVCIGRRPFTKNLGLEELGIELDPRGRIPVNTRFQTKIPNIYAIGDVVAGPMLAHKAEDEGIICVEGMAGGAVHIDYNCVPSVIYTHPEVAWVGKSEEQLKEEGIEYKVGKFPFAANSRAKTNADTDGMVKILGQKSTDRVLGAHILGPGAGEMVNEAALALEYGASCEDIARVCHAHPTLSEAFREANLAASFGKSINF
B2: aldehyde dehydrogenase 18 family member A1 (protein, UniProt P54886 1-795)
chain: MLSQVYRCGFQPFNQHLLPWVKCTTVFRSHCIQPSVIRHVRSWSNIPFITVPLSRTHGKSFAHRSELKHAKRIVVKLGSAVVTRGDECGLALGRLASIVEQVSVLQNQGREMMLVTSGAVAFGKQRLRHEILLSQSVRQALHSGQNQLKEMAIPVLEARACAAAGQSGLMALYEAMFTQYSICAAQILVTNLDFHDEQKRRNLNGTLHELLRMNIVPIVNTNDAVVPPAEPNSDLQGVNVISVKDNDSLAARLAVEMKTDLLIVLSDVEGLFDSPPGSDDAKLIDIFYPGDQQSVTFGTKSRVGMGGMEAKVKAALWALQGGTSVVIANGTHPKVSGHVITDIVEGKKVGTFFSEVKPAGPTVEQQGEMARSGGRMLATLEPEQRAEIIHHLADLLTDQRDEILLANKKDLEEAEGRLAAPLLKRLSLSTSKLNSLAIGLRQIAASSQDSVGRVLRRTRIAKNLELEQVTVPIGVLLVIFESRPDCLPQVAALAIASGNGLLLKGGKEAAHSNRILHLLTQEALSIHGVKEAVQLVNTREEVEDLCRLDKMIDLIIPRGSSQLVRDIQKAAKGIPVMGHSEGICHMYVDSEASVDKVTRLVRDSKCEYPAACNALETLLIHRDLLRTPLFDQIIDMLRVEQVKIHAGPKFASYLTFSPSEVKSLRTEYGDLELCIEVVDNVQDAIDHIHKYGSSHTDVIVTEDENTAEFFLQHVDSACVFWNASTRFSDGYRFGLGAEVGISTSRIHARGPVGLEGLLTTKWLLRGKDHVVSDFSEHGSLKYLHENLPIPQRNTN
B3: ALDH1B1 (protein, UniProt P30837 18-517)
chain: RYSSAAALPSPILNPDIPYNQLFINNEWQDAVSKKTFPTVNPTTGEVIGHVAEGDRADVDRAVKAAREAFRLGSPWRRMDASERGRLLNRLADLVERDRVYLASLETLDNGKPFQESYALDLDEVIKVYRYFAGWADKWHGKTIPMDGQHFCFTRHEPVGVCGQIIPWNFPLVMQGWKLAPALATGNTVVMKVAEQTPLSALYLASLIKEAGFPPGVVNIITGYGPTAGAAIAQHVDVDKVAFTGSTEVGHLIQKAAGDSNLKRVTLELGGKSPSIVLADADMEHAVEQCHEALFFNMGQCCCAGSRTFVEESIYNEFLERTVEKAKQRKVGNPFELDTQQGPQVDKEQFERVLGYIQLGQKEGAKLLCGGERFGERGFFIKPTVFGGVQDDMRIAKEEIFGPVQPLFKFKKIEEVVERANNTRYGLAAAVFTRDLDKAMYFTQALQAGTVWVNTYNIVTCHTPFGGFKESGNGRELGEDGLKAYTEVKTVTIKVPQKNS
B4: ADH7A1 (protein, UniProt P49419 27-539)
chain: AFMSTLLINQPQYAWLKELGLREENEGVYNGSWGGRGEVITTYCPANNEPIARVRQASVADYEETVKKAREAWKIWADIPAPKRGEIVRQIGDALREKIQVLGSLVSLEMGKILVEGVGEVQEYVDICDYAVGLSRMIGGPILPSERSGHALIEQWNPVGLVGIITAFNFPVAVYGWNNAIAMICGNVCLWKGAPTTSLISVAVTKIIAKVLEDNKLPGAICSLTCGGADIGTAMAKDERVNLLSFTGSTQVGKQVGLMVQERFGRSLLELGGNNAIIAFEDADLSLVVPSALFAAVGTAGQRCTTARRLFIHESIHDEVVNRLKKAYAQIRVGNPWDPNVLYGPLHTKQAVSMFLGAVEEAKKEGGTVVYGGKVMDRPGNYVEPTIVTGLGHDASIAHTETFAPILYVFKFKNEEEVFAWNNEVKQGLSSSIFTKDLGRIFRWLGPKGSDCGIVNVNIPTSGAEIGGAFGGEKHTGGGRESGSDAWKQYMRRSTCTINYSKDLPLAQGIKFQ
B5: SEC23-interacting protein (protein, UniProt Q9Y6Y8 1-1000)
chain: MAERKPNGGSGGASTSSSGTNLLFSSSATEFSFNVPFIPVTQASASPASLLLPGEDSTDVGEEDSFLGQTSIHTSAPQTFSYFSQVSSSSDPFGNIGQSPLTTAATSVGQSGFPKPLTALPFTTGSQDVSNAFSPSISKAQPGAPPSSLMGINSYLPSQPSSLPPSYFGNQPQGIPQPGYNPYRHTPGSSRANPYIAPPQLQQCQTPGPPAHPPPSGPPVQMYQMPPGSLPPVPSSVQSPAQQQVPARPGAPSVQVPSPFLLQNQYEPVQPHWFYCKEVEYKQLWMPFSVFDSLNLEEIYNSVQPDPESVVLGTDGGRYDVYLYDRIRKAAYWEEEPAEVRRCTWFYKGDTDSRFIPYTEEFSEKLEAEYKKAVTTNQWHRRLEFPSGETIVMHNPKVIVQFQPSSVPDEWGTTQDGQTRPRVVKRGIDDNLDEIPDGEMPQVDHLVFVVHGIGPVCDLRFRSIIECVDDFRVVSLKLLRTHFKKSLDDGKVSRVEFLPVHWHSSLGGDATGVDRNIKKITLPSIGRFRHFTNETLLDILFYNSPTYCQTIVEKVGMEINHLHALFMSRNPDFKGGVSVAGHSLGSLILFDILSNQKDLNLSKCPGPLAVANGVVKQLHFQEKQMPEEPKLTLDESYDLVVENKEVLTLQETLEALSLSEYFSTFEKEKIDMESLLMCTVDDLKEMGIPLGPRKKIANFVEHKAAKLKKAASEKKAVAATSTKGQEQSAQKTKDMASLPSESNEPKRKLPVGACVSSVCVNYESFEVGAGQVSVAYNSLDFEPEIFFALGSPIAMFLTIRGVDRIDENYSLPTCKGFFNIYHPLDPVAYRLEPMIVPDLDLKAVLIPHHKGRKRLHLELKESLSRMGSDLKQGFISSLKSAWQTLNEFARAHTSSTQLQEELEKVANQIKEEEEKQVVEAEKVVESPDFSKDEDYLGKVGMLNGGRRIDYVLQEKPIESFNEYLFALQSHLCYWESEDTALLLLKEIYRTMNISPEQPQH
B6: Vesicular, Overexpressed in Cancer, Pro-survival Protein 1 (protein, UniProt Q96AW1 23-172)
chain: KKHCWYFEGLYPTYYICRSYEDCCGSRCCVRALSIQRLWYFWFLLMMGVLFCCGAGFFIRRRMYPPPLIEEPAFNVSYTRQPPNPGPGAQQPGPPYYTDPGGPGMNPVGNSMAMAFQVPPNSPQGSVACPPPPAYCNTPPPPYEQVVKAK
B7: Catsper Channel Auxiliary Subunit Epsilon (protein, UniProt Q5SY80 20-951)
chain: LWRYSTNSPNYRIFSTRSTIKLEYEGTLFTEWSVPETCFVLNKSSPTTELRCSSPGVHAIKPIVTGPDEEERYLFVESSHTCFLWYYRVRHFFNNFTQLITVWAYDPESADPDELLGNAEEPSINSIVLSTQMATLGQKPVIHTVLKRKVYSSNEKMRRGTWRIVVPMTKDDALKEIRGNQVTFQDCFIADFLILLTFPLLTIPEIPGYLPISSPRGSQLMASWDACVVASAVLVTDMETFHTTDSFKSWTRIRVPPDILSDDERRSVAHVILSRDGIVFLINGVLYIKSFRGFIRLGGIVNLPDGGITGISSRKWCWVNYLLKAKGRRSTFAVWTENEIYLGSILLKFARLVTTTELKNILSLSVTATLTIDRVEYTGHPLEIAVFLNYCTVCNVTKKIFLVIYNEDTKQWVSQDFTLDAPIDSVTMPHFTFSALPGLLLWNKHSIYYCYHNFTFTGILQTPAGHGNLSMLSNDSIIHEVFIDYYGDILVKMENNVIFYSKINTRDAVKLHLWTNYTTRAFIFLSTSGQTYFLYALDDGTIQIQDYPLHLEAQSIAFTTKDKCPYMAFHNNVAHVFYFLDKGEALTVWTQIVYPENTGLYVIVESYGPKILQESHEISFEAAFGYCTKTLTLTFYQNVDYERISDYFETQDKHTGLVLVQFRPSEYSKACPIAQKVFQIAVGCDDKKFIAIKGFSKKGCHHHDFSYVIEKSYLRHQPSKNLRVRYIWGEYGCPLRLDFTEKFQPVVQLFDDNGYVKDVEANFIVWEIHGRDDYSFNNTMAQSGCLHEAQTWKSMIELNKHLPLEEVWGPENYKHCFSYAIGKPGDLNQPYEIINSSNGNHIFWPMGHSGMYVFRVKILDPNYSFCNLTAMFAIETFGLIPSPSVYLVASFLFVLMLLFFTILVLSYFRYMRIYRRYIYEPLHKPQRKRKKN
B8: Disheveled 1 (protein, UniProt O14640 1-695)
chain: MAETKIIYHMDEEETPYLVKLPVAPERVTLADFKNVLSNRPVHAYKFFFKSMDQDFGVVKEEIFDDNAKLPCFNGRVVSWLVLAEGAHSDAGSQGTDSHTDLPPPLERTGGIGDSRPPSFHPNVASSRDGMDNETGTESMVSHRRERARRRNREEAARTNGHPRGDRRRDVGLPPDSASTALSSELESSSFVDSDEDGSTSRLSSSTEQSTSSRLIRKHKRRRRKQRLRQADRASSFSSITDSTMSLNIVTVTLNMERHHFLGISIVGQSNDRGDGGIYIGSIMKGGAVAADGRIEPGDMLLQVNDVNFENMSNDDAVRVLREIVSQTGPISLTVAKCWDPTPRSYFTVPRADPVRPIDPAAWLSHTAALTGALPRYGTSPCSSAVTRTSSSSLTSSVPGAPQLEEAPLTVKSDMSAVVRVMQLPDSGLEIRDRMWLKITIANAVIGADVVDWLYTHVEGFKERREARKYASSLLKHGFLRHTVNKITFSEQCYYVFGDLCSNLATLNLNSGSSGTSDQDTLAPLPHPAAPWPLGQGYPYQYPGPPPCFPPAYQDPGFSYGSGSTGSQQSEGSKSSGSTRSSRRAPGREKERRAAGAGGSGSESDHTAPSGVGSSWRERPAGQLSRGSSPRSQASATAPGLPPPHPTTKAYTVVGGPPGGPPVRELAAVPPELTGSRQSFQKAMGNPCEFFVDIM

Biological target: T1, SFB-tagged WWOX (WW domain-containing oxidoreductase) (human)
Assay: affinity purification with mass spectrometry; tandem affinity purification from lysate (NETN buffer) of HEK293T cells stably expressing C-terminally SFB-tagged WWOX: streptavidin beads, elution with 2 mg/ml biotin, then S protein beads; LC-MS/MS; two replicates; hits filtered by MUSE interaction score and CRAPome frequency

Binder | binding
B1 | binds
B2 | binds
B3 | binds
B4 | binds
B5 | binds
B6 | binds
B7 | binds
B8 | binds

From article PMC6300487
